Experimental data: PMC11220067
Results are given in words; binding and its absence hold for the method and conditions named. In cells and extracts the contact can be indirect. Some entries that bind do so weakly or less than the wild type.

By UniProt entry, the sequences of proteins in these tests, tags left out.
UniProt P08912: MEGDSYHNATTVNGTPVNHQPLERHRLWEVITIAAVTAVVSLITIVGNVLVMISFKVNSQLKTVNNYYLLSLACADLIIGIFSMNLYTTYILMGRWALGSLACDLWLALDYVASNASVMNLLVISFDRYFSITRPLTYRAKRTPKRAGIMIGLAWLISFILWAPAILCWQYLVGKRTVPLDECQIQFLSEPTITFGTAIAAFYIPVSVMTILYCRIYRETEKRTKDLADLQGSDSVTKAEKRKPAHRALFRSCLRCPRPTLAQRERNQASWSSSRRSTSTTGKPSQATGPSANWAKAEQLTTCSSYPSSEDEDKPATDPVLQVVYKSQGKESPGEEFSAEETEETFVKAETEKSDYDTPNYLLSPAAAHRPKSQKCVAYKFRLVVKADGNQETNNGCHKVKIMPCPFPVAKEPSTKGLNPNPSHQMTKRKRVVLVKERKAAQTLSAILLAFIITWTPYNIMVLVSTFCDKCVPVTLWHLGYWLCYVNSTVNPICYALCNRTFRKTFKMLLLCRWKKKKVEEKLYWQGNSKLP
UniProt P08172: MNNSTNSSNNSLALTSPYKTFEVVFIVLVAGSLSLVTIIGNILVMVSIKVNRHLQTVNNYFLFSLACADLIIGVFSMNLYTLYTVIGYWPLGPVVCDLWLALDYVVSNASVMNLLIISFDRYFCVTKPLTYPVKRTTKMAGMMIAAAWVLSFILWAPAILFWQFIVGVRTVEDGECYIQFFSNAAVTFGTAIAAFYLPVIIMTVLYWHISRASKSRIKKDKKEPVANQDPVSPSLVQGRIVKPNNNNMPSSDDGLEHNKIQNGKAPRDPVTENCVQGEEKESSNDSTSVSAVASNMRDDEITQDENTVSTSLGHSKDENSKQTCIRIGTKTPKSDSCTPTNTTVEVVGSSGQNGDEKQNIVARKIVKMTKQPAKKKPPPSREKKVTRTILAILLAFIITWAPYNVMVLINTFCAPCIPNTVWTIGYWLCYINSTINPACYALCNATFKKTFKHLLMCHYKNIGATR
UniProt P32120: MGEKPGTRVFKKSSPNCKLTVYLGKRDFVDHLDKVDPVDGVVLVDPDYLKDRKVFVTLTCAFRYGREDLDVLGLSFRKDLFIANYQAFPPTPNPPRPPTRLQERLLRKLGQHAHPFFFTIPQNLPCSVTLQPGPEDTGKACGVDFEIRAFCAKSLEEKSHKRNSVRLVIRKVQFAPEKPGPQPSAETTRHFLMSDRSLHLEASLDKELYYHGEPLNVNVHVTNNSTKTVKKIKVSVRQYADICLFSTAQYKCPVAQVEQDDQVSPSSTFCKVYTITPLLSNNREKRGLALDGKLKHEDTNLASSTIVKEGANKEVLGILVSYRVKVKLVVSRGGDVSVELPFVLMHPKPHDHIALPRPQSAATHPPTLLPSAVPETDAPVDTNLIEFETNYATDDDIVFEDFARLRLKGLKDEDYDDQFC

Columns and labels:
[1] = target: muscarinic M5 acetylcholine receptor-NanoLuciferase (human) (UniProt P08912); assay: FRET or BRET; intermolecular NanoBRET in living cells; GPCR-NLuc as donor, Halo-Tag-β-arrestin2 (Halo-ligand labelled) as acceptor; ΔQ-GRK HEK293 cells co-transfected with empty vector, GRK2 or GRK3 (WT, D110A, R587Q, D110A,R587Q) or their CAAX versions; for M5R also CRISPR/Cas9 HEK293 control cells with endogenous GRKs, with or without bARK-CT (0.5 or 1 µg) or 300 nM FR900359; stimulated with isoproterenol (b2AR) or acetylcholine (M2R, M5R); measuring buffer 140 mM NaCl, 10 mM HEPES, 5.4 mM KCl, 2 mM CaCl2, 1 mM MgCl2, pH 7.3
[2] = target: muscarinic M2 acetylcholine receptor-NanoLuciferase (human) (UniProt P08172); assay: as above

- binding [1]: binds
- binding [2]: binds
Substance: Halo-Tag-β-arrestin2 (from UniProt P32120 1-420)
